Legend:
lignée MCF-7P = experiment: MTT cytotoxicity test (cell viability); assay type: cell-based, humaines; conditions: 120 h; MCF7-P variant cells; 5 days incubation with compound; MTT readout at 550 nm; calculated from points of Figures 1A, 1B and 2 between 5.10^-7 and 10^-5 moles/l; read-out: IC50 (µmole) MCF7-P
Excerpt: (§1) L'évaluation de la cytotoxicité des isomères "trans" et "cis" du 1-[4-(2-diméthylaminoéthoxy) phényl]-1-(4-hydroxyphényl)-2-ferrocényl-1-butène a fait l'objet de tests sur des lignées de cellules humaines dérivées d'une effusion pleurale d'un adénocarcinome mammaire (lignée MCF-7 ATCC HTB) ainsi que de l'un de ses variants (lignée MCF-7P).
(§2) Ces cellules ont été préalablement cultivées dans du milieu Dulbecco MEM additionné de 10% de sérum de veau foetal et en atmosphère humide (90% d'humidité relative) comprenant 5% de CO2. En phase exponentielle de croissance, ces cellules ont été trypsinées et repiquées dans des plaques de 24 puits de 1 ml à raison de 2.10^5 cellules par puits.
(§3) Après 3 jours d'incubation, les composés à tester ont été ajoutés aux doses appropriées et les plaques ont été mises à incuber pendant 5 jours.
(§4) A l'issue de cette incubation, la viabilité cellulaire des cultures a été déterminée à l'aide du test dit "MTT" consistant à ajouter dans chaque puits 20 µl d'une solution contenant 5 mg de bromure de (diméthyl-4,5-thiazol-2-yl)diphényl-2,5-tétrazolium (MTT) dans 1 ml de tampon PBS, et à laisser incuber les plaques pendant 1 heure à 37°C dans des conditions atmosphériques identiques à celles définies ci-dessus. Le MTT est métabolisé dans les cellules vivantes en un composé bleu insoluble (formazan). […]

lignée MCF-7 ATCC HTB = experiment: MTT cytotoxicity test (cell viability); assay type: cell-based, humaines; conditions: Homo sapiens, 120 h; MCF7 ATCC cells; 5 days incubation with compound; MTT readout at 550 nm; calculated from points of Figures 1A, 1B and 2 between 5.10^-7 and 10^-5 moles/l; read-out: IC50 (µmole) MCF7 ATCC
Excerpt: as §1, §2, §3, §4

## CC/C(=C(\c1ccccc1)c1ccc(OCCN(C)C)cc1)c1ccccc1 [Tamoxifène, tamoxifène, reference compound]
lignée MCF-7P
  IC50: 7.2 µM
lignée MCF-7 ATCC HTB
  IC50: 6.4 µM
